Experimental data from the supplement of paper PMC10849652.
Some of the results follow.

Sequences of proteins named here, by UniProt entry; tags and fusion partners are left off. A change or cut given only in a name is not applied to a line headed by its entry.
UniProt Q3ZCQ8: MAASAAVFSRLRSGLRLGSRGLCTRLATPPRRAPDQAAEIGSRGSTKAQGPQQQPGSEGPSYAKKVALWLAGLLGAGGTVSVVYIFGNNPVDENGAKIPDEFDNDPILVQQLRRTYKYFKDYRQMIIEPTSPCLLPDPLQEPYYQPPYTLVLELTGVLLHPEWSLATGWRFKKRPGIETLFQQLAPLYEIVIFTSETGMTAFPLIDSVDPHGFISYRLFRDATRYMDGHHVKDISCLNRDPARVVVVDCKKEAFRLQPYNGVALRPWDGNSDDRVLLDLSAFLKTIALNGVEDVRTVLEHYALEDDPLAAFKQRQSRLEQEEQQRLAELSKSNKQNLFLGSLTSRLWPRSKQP
UniProt Q53S58: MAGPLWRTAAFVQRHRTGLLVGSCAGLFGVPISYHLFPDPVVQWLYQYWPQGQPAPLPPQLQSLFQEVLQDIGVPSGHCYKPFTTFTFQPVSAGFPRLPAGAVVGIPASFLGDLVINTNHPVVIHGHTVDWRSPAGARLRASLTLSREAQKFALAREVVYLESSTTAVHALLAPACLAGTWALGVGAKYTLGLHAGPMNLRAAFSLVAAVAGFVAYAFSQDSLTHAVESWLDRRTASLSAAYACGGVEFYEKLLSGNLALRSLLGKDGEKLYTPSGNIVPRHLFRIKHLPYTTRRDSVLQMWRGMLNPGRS
UniProt Q86W42: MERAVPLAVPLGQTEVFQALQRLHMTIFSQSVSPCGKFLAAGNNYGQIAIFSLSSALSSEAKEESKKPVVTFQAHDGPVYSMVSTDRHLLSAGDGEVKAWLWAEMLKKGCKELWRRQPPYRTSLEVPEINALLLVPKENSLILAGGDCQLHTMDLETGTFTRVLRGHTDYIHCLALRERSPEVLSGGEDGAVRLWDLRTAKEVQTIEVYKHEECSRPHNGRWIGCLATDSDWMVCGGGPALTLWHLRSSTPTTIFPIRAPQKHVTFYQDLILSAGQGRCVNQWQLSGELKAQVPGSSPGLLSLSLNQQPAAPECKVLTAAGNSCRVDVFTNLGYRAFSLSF
UniProt Q8NI27: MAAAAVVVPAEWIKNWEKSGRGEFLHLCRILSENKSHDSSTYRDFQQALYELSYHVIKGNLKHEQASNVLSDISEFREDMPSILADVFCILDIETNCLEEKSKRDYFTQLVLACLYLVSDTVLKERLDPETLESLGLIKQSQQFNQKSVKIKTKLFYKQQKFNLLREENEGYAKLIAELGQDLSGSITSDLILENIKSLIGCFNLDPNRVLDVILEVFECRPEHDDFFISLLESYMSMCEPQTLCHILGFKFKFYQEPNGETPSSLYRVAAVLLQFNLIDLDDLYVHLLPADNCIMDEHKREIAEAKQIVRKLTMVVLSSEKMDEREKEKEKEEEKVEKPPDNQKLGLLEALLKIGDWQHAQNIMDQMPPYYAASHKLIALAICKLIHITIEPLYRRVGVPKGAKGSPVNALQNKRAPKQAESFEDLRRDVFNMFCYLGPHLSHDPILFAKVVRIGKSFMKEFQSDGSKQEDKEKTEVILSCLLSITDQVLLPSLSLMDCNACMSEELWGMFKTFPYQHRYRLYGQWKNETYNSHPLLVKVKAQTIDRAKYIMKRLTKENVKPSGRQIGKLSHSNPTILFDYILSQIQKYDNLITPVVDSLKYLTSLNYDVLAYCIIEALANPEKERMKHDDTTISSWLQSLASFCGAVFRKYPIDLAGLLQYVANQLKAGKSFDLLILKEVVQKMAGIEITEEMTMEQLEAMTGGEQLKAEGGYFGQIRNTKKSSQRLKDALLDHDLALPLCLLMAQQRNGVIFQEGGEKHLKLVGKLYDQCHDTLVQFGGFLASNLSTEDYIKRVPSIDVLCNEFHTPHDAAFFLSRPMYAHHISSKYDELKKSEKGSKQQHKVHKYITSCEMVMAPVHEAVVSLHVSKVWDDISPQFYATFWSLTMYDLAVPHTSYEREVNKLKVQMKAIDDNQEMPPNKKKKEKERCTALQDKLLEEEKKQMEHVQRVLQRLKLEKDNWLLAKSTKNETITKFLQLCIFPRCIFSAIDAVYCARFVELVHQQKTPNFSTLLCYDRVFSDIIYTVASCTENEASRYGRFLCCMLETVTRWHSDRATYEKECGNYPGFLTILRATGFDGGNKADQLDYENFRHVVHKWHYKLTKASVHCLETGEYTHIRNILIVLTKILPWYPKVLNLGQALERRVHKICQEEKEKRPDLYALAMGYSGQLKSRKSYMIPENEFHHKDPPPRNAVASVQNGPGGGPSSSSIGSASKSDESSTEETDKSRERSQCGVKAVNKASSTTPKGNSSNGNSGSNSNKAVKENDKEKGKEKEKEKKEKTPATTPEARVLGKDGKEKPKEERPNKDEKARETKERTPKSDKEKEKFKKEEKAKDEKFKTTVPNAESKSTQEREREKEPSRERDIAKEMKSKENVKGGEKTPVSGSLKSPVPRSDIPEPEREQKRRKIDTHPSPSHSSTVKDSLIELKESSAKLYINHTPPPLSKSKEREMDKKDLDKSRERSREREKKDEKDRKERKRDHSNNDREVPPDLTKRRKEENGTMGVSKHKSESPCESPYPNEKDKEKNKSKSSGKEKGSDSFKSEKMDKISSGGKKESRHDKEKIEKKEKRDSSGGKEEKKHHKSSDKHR
UniProt Q9BTF0: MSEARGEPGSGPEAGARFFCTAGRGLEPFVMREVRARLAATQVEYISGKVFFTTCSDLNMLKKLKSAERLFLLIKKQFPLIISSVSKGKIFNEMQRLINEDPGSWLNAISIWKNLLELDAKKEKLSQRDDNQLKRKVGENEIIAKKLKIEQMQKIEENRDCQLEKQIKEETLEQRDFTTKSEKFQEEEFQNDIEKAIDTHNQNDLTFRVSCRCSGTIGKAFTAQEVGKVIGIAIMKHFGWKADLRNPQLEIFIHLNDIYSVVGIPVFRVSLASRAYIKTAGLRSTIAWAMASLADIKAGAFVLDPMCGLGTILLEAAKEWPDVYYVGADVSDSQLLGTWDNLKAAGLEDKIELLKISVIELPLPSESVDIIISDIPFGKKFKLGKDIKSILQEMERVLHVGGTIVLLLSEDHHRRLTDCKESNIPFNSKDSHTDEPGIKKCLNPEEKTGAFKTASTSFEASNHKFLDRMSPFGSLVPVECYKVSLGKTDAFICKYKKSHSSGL
UniProt Q9P2C4: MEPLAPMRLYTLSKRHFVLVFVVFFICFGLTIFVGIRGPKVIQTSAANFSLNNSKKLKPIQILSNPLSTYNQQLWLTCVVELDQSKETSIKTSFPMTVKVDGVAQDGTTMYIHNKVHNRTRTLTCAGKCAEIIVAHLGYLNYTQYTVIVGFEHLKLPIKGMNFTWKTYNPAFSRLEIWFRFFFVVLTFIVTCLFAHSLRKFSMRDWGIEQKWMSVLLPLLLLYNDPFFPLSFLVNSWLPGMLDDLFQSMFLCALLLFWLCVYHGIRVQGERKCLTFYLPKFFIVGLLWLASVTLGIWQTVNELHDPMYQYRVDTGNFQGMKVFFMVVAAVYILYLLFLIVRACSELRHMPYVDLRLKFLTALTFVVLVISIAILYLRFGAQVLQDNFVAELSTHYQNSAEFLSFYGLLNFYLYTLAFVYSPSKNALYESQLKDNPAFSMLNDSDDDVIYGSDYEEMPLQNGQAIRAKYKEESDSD
UniProt Q15363: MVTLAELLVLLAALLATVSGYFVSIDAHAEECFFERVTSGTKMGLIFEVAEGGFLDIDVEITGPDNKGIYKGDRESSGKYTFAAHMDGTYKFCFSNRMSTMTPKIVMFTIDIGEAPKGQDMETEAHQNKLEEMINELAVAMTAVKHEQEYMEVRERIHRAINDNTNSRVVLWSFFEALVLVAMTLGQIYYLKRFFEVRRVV
UniProt Q96B77: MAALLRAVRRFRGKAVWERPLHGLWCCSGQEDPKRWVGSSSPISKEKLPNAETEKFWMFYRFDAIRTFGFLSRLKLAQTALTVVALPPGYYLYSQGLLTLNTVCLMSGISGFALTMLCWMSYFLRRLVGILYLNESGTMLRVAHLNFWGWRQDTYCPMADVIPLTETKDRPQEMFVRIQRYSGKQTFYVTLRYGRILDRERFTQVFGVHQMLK
UniProt O00142: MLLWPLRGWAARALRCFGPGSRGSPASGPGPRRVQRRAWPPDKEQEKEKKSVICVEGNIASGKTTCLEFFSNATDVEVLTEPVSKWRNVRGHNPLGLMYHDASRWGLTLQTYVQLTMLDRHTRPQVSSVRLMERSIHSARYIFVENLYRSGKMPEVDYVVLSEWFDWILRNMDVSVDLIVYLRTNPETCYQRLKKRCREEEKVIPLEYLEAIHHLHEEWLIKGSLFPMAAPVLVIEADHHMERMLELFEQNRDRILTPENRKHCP
UniProt Q96DC7: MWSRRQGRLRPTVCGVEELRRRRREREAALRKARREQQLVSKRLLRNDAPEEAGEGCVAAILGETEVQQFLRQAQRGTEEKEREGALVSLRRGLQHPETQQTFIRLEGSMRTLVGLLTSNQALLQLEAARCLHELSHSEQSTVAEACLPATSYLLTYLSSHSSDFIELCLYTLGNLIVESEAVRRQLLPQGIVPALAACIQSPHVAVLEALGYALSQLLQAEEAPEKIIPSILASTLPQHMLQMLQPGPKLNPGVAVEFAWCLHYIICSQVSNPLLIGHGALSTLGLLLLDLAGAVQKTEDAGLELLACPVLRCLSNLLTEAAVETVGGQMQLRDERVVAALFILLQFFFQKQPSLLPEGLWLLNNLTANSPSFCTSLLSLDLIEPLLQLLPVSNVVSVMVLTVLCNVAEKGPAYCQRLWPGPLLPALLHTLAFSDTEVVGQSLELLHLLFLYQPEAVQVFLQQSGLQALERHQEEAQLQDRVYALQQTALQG
UniProt Q9NPI0: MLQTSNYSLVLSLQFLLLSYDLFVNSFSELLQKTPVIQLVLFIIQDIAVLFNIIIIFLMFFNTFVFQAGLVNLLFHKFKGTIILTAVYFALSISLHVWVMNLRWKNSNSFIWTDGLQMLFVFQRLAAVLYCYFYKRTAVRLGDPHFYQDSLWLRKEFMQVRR
UniProt Q9NX61: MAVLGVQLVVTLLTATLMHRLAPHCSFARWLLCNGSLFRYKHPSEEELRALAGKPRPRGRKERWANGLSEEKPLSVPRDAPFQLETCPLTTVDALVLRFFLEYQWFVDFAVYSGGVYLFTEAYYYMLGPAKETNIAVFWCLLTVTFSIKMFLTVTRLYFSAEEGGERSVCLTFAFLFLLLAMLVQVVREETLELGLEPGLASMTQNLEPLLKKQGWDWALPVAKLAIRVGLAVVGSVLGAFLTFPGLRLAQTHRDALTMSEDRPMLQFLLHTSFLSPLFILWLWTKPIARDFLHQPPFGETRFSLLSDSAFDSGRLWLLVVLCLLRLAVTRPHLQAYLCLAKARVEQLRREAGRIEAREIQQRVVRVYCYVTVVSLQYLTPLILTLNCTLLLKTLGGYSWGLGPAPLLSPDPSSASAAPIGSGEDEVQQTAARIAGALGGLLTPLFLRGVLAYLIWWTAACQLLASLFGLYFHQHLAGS
UniProt Q8WTV1: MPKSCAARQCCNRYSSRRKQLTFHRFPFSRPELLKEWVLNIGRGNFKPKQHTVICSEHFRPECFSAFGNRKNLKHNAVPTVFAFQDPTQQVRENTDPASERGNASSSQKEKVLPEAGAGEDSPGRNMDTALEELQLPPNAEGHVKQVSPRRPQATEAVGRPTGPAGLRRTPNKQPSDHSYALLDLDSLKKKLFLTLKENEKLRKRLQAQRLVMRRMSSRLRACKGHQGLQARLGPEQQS
UniProt P51854: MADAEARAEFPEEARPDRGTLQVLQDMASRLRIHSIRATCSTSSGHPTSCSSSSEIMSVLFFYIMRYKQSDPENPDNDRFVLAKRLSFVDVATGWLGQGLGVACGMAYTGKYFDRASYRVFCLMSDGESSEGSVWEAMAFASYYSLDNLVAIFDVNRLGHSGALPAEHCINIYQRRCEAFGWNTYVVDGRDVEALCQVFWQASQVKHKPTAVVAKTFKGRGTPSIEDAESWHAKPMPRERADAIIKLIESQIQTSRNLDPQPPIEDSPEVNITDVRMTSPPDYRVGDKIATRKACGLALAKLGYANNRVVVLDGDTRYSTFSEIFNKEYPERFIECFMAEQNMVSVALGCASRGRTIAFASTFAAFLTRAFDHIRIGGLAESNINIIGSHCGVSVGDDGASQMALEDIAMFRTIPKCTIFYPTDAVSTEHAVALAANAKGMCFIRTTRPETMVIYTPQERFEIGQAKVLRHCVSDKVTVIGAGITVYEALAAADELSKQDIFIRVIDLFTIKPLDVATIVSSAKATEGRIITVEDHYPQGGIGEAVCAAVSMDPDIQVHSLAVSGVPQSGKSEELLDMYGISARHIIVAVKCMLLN
UniProt Q9BT49: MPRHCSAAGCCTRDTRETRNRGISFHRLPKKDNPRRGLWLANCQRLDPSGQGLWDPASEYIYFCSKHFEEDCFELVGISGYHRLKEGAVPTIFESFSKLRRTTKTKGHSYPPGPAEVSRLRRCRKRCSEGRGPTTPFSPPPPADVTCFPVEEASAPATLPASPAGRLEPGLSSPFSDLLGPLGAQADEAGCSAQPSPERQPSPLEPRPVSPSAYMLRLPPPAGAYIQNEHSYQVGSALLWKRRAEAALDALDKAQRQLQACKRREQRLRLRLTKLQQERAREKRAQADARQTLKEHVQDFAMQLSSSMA

Assays:
Assay in all cases: log2 fold change, soluble protein after heating vs DMSO (PISA); higher = thermal stabilisation; K562 lysate, 10 uM; active = over 0.2 and 3.5 SD of the protein, either way, in both replicates (recomputed)
[1] = compound: C#Cc1cccc(Nc2ncnc3cc(OCCOC)c(OCCOC)cc23)c1 [erlotinib]
Method in brief: (§1)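 K562 pellets were dounce-homogenised in PBS pH 7.4 containing 1 mM MgCl2, and the crude extract, at 1 mg/mL protein, was exposed to 10 μM compound for 30 min. Aliquots were heated for 3 min across 48°C-58°C, pooled, brought to 0.5% NP-40 at 4°C and spun at 21,000xg for 90 min, with the supernatant taken as soluble protein. TMTpro 16plex LC-MS/MS with equalised channel sums quantified that protein. Values are log-two fold changes in thermal stability relative to solvent controls, taken from duplicates.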

[2] = compound: C/C(=N\NC(=O)C1=CC(=CC=C1)S(=O)(=O)N2CCOCC2)/C3=C(C=CC(=C3)Cl)O
Method in brief: as §1

[3] = compound: C1=CC(=CC=C1C2=NC3=C(N2)C=C(C=C3)C(=O)N)OC4=CC=C(C=C4)Cl
Method in brief: as §1

[4] = compound: C1=CC2=C(C=CC(=C2)/C=C\3/C(=O)NC(=NCC4=CC=CS4)S3)N=C1
Method in brief: as §1

[5] = compound: C1=CC2=NC=CN=C2C=C1/C=C/3\C(=O)NC(=O)S3
Method in brief: as §1

[6] = compound: C1=CC=C(C=C1)C2=NC(=C(N2)C3=CC=NC=C3)C4=CC(=C(C=C4)Cl)O
Method in brief: as §1

[7] = compound: C1=CC=C2C(=C1)C3=NNC4=CC=CC(=C43)C2=O
Method in brief: as §1

[8] = compound: C1CCN(C1)C(=O)NC2=CC=CC(=C2)NC3=NC=C(C(=N3)NCCC4=CN=CN4)Br
Method in brief: as §1

[9] = compound: C1CN(CCC1(CC2=CC=C(C=C2)Cl)N)C3=NC=NC4=C3C=CN4
Method in brief: as §1

[10] = compound: C1COCCN1CCN2C3=CC=CC=C3N=C2NC(=O)C4=CC(=CC=C4)[N+](=O)[O-] [IRAK-1-4 Inhibitor I]
Method in brief: as §1

[11] = compound: C=CC(=O)N1CCC[C@@H](n2nc(-c3ccc(Oc4ccccc4)cc3)c3c(N)ncnc32)C1 [ibrutinib]
Method in brief: as §1

[12] = compound: CC(=O)c1cnc2ccc(-c3cc(Cl)c(O)c(Cl)c3)nc2c1N[C@H]1CC[C@H](CN(C)C)CC1
Method in brief: as §1

[13] = compound: CC(C)(C)Cn1c(N)nc2ccc(-c3[nH]c(C(C)(C)C)nc3-c3ccc(F)cc3)nc21 [ralimetinib]
Method in brief: as §1

[14] = compound: CC(C)(O)CC(=O)NCCn1ccc2ncnc(Nc3ccc(Oc4cccc(C(F)(F)F)c4)c(Cl)c3)c21
Method in brief: as §1

[15] = compound: CC(C)C1=C2N=C(C=C(N2N=C1)NCC3=CC=CC=C3)NCCCCCCN
Method in brief: as §1

[16] = compound: CC1=C(C(CC(=O)N1)C2=CC=C(C=C2)C(F)(F)F)C(=O)NC3=C(C=C4C(=C3)C=NN4)F
Method in brief: as §1

[17] = compound: CC1=C(C2=C(C=C1)C(=O)C3=CC=CC=C3N2CCCN)C
Method in brief: as §1

[18] = compound: CC1=C(C=C(C=C1)NC(=O)C2=CC(=CC=C2)C(C)(C)C#N)NC3=CC4=C(C=C3)N=CN(C4=O)C
Method in brief: as §1

[19] = compound: CC1=C(C=C(C=C1)NC(=O)C2=CC(=CC=C2)N(C)C)NC(=O)C3=CC=C(C=C3)O
Method in brief: as §1

[20] = compound: CC1=CC=C(C=C1)SC2=C3C=C(SC3=CN=C2)C(=O)N
Method in brief: as §1

Target	log2 fold change [1]	log2 fold change [2]	log2 fold change [3]	log2 fold change [4]	log2 fold change [5]	log2 fold change [6]	log2 fold change [7]	log2 fold change [8]	log2 fold change [9]	log2 fold change [10]	log2 fold change [11]	log2 fold change [12]	log2 fold change [13]	log2 fold change [14]	log2 fold change [15]	log2 fold change [16]	log2 fold change [17]	log2 fold change [18]	log2 fold change [19]	log2 fold change [20]
TIMM50 isoform 2 (UniProt Q3ZCQ8)	inactive: -0.004	inactive: 0.045	inactive: -0.033	inactive: -0.002	inactive: 0.022	inactive: -0.025	inactive: 0.016	inactive: 0	inactive: 0.002	inactive: -0.008	inactive: 0.04	inactive: -0.032	inactive: 0.014	inactive: -0.053	inactive: -0.017	inactive: 0.105	inactive: 0.052	inactive: 0.047	inactive: 0.014	inactive: -0.032
TIMM13 (UniProt Q9Y5L4)	inactive: -0.046	inactive: 0.004	inactive: 0.017	inactive: 0.029	inactive: 0.011	inactive: 0.033	inactive: -0.04	inactive: 0.013	inactive: 0.064	inactive: -0.052	inactive: 0.057	inactive: -0.008	inactive: 0.005	inactive: -0.015	inactive: -0.029	inactive: 0.045	inactive: -0.031	inactive: 0.011	inactive: -0.048	inactive: -0.003
TMEM177 (UniProt Q53S58)	inactive: 0.042	inactive: 0.06	inactive: -0.042	inactive: 0.016	inactive: -0.019	inactive: -0.054	inactive: 0.148	inactive: 0.019	inactive: 0.005	inactive: 0	inactive: 0.079	inactive: -0.022	inactive: -0.287	active: -0.311	inactive: 0.007			inactive: -0.03	inactive: 0.032	inactive: -0.005
THOC6 (UniProt Q86W42)	inactive: -0.023	inactive: -0.067	inactive: -0.027	inactive: 0.003	inactive: -0.035	inactive: -0.022	inactive: -0.036	inactive: -0.018	inactive: 0.027	inactive: 0.007	inactive: -0.048	inactive: -0.02	inactive: -0.022	inactive: -0.027	inactive: -0.013	inactive: -0.026	inactive: 0.002	inactive: -0.022	inactive: 0	inactive: 0
THOC2 (UniProt Q8NI27)	inactive: -0.001	inactive: 0.026	inactive: 0.006	inactive: 0.016	inactive: -0.019	inactive: -0.005	inactive: -0.01	inactive: 0.004	inactive: -0.005	inactive: -0.005	inactive: -0.002	inactive: -0.032	inactive: 0.025	inactive: -0.01	inactive: 0	inactive: 0.001	inactive: -0.02	inactive: -0.016	inactive: 0.03	inactive: 0.011
TJP1 (UniProt G3V1L9)	inactive: 0.169	inactive: 0.199	inactive: 0.087	inactive: -0.119	inactive: -0.068	inactive: 0.014	inactive: 0.063			inactive: 0.047	inactive: 0.024		inactive: 0.075	inactive: -0.014	inactive: -0.025	inactive: -0.041	inactive: 0.022	inactive: -0.017	inactive: -0.041	
THUMPD2 (UniProt Q9BTF0)	inactive: -0.013	inactive: 0.05	inactive: -0.034	inactive: -0.051	inactive: -0.007	inactive: -0.029	inactive: -0.004	inactive: 0.002	inactive: 0.031	inactive: 0.068	inactive: 0.027	inactive: 0.018	inactive: 0.036	inactive: 0.044	inactive: 0.011	inactive: -0.014	inactive: -0.012	inactive: -0.015	inactive: -0.03	inactive: 0.038
TMEM181 (UniProt Q9P2C4)	inactive: 0.015	inactive: -0.172	inactive: 0.065	inactive: -0.184	inactive: 0.018	inactive: -0.015	inactive: -0.043	inactive: 0.03	inactive: 0.005	inactive: -0.042	inactive: -0.014	inactive: -0.078	inactive: -0.044	inactive: 0.003	inactive: -0.034		inactive: -0.037	inactive: 0.036	inactive: 0.056	inactive: -0.096
TMED2 (UniProt Q15363)	inactive: -0.005	inactive: -0.007	inactive: -0.051	inactive: 0.032	inactive: -0.007	inactive: 0.023	inactive: -0.094	inactive: -0.013	inactive: 0.008	inactive: 0.045	inactive: 0.026	inactive: -0.008	inactive: -0.015	inactive: -0.032	inactive: 0.014	inactive: 0.019	inactive: -0.01	inactive: 0.032	inactive: -0.016	inactive: -0.019
TMEM141 (UniProt Q96I45)	inactive: 0.037	inactive: -0.102	inactive: 0.153	inactive: 0.081	inactive: -0.032	inactive: -0.056	inactive: 0.005			inactive: 0.056	inactive: -0.069	inactive: -0.035	inactive: -0.126	inactive: -0.243	inactive: -0.049	inactive: 0.108	inactive: -0.161	inactive: 0.021	inactive: 0.025	inactive: -0.089
TMEM123 (UniProt Q8N131)	inactive: -0.083	inactive: 0.077	inactive: -0.102	inactive: 0.01	inactive: 0.07	inactive: 0.006	inactive: 0.036	inactive: 0.052	inactive: -0.034	inactive: 0.041	inactive: 0.1	inactive: 0.044	inactive: 0.067	inactive: -0.024	inactive: 0.02	inactive: -0.021	inactive: 0.074		inactive: -0.017	inactive: 0.019
TMEM186 (UniProt Q96B77)	inactive: 0.033	inactive: -0.047	inactive: -0.045	inactive: -0.029	inactive: 0.002	inactive: 0.04	inactive: 0.041	inactive: -0.019	inactive: 0.036	inactive: -0.046	inactive: 0.023	inactive: -0.009	inactive: 0.002	inactive: -0.051	inactive: -0.041	inactive: -0.022	inactive: -0.057	inactive: 0.035	inactive: -0.032	inactive: -0.027
TK2 isoform 6 (UniProt O00142)	inactive: 0.081	inactive: 0.051	inactive: 0.027	inactive: -0.001	inactive: 0	inactive: 0.083	inactive: -0.013	inactive: 0.096	inactive: -0.113	inactive: 0.111	inactive: -0.192	inactive: 0.072	inactive: -0.164	inactive: -0.174	inactive: -0.097		inactive: -0.051	inactive: 0.061	inactive: 0.078	inactive: 0.053
TMEM167B (UniProt Q9NRX6)	inactive: -0.061	inactive: -0.016	inactive: -0.006	inactive: -0.042	inactive: -0.044	inactive: -0.002	inactive: 0.013	inactive: -0.056	inactive: 0.036	inactive: -0.014	inactive: 0.019	inactive: -0.02	inactive: 0.015	inactive: 0.001	inactive: -0.02	inactive: -0.058		inactive: 0.021	inactive: 0.035	inactive: -0.033
TMCO6 isoform 2 (UniProt Q96DC7)	inactive: -0.05	inactive: -0.199	inactive: 0.066	inactive: -0.165	inactive: -0.055	inactive: -0.021	inactive: -0.111	inactive: 0.064	inactive: 0.055	inactive: -0.041	inactive: 0.025	inactive: 0.06	inactive: 0.004	inactive: -0.05	inactive: -0.016	inactive: 0.093	inactive: -0.049	inactive: 0.056	inactive: 0.02	inactive: 0.039
TMEM138 (UniProt Q9NPI0)	inactive: -0.216	inactive: -0.164	inactive: 0.074	inactive: 0.007			inactive: 0.034	inactive: -0.179	inactive: 0.017						inactive: -0.017		inactive: -0.129			
TM7SF3 (UniProt Q9NS93)	inactive: 0.03	inactive: 0.014	inactive: 0.046	inactive: 0.063	inactive: -0.008	inactive: 0.01	inactive: -0.094	inactive: 0.131	inactive: 0.109	inactive: 0.016	inactive: -0.012		inactive: 0	inactive: -0.051	inactive: -0.079		inactive: -0.013	inactive: 0.047	inactive: 0.123	
TMEM161A (UniProt Q9NX61)	inactive: 0.144	inactive: -0.038	inactive: -0.089	inactive: 0.105	inactive: -0.102	inactive: 0.065	inactive: -0.03	inactive: -0.071	inactive: 0.177	inactive: -0.034	inactive: -0.009	inactive: 0.069	inactive: -0.063	inactive: -0.229	inactive: -0.163	inactive: 0.279	inactive: 0.295	inactive: -0.176	inactive: 0.074	inactive: -0.042
THEM6 (UniProt Q8WUY1)	inactive: -0.068	inactive: 0.03	inactive: -0.049	inactive: -0.037	inactive: 0.047	inactive: -0.047	inactive: 0.01	inactive: -0.016	inactive: -0.025	inactive: -0.065	inactive: 0.091	inactive: 0.012	inactive: 0.063	inactive: 0.013	inactive: -0.019	inactive: 0.001	inactive: -0.044	inactive: 0.008	inactive: -0.018	inactive: 0.008
THAP3 (UniProt Q8WTV1)	inactive: -0.051		inactive: 0.026			inactive: -0.08				inactive: -0.017			inactive: -0.01	inactive: 0.099	inactive: -0.084	inactive: 0.039		inactive: 0.046	inactive: 0.069	
TKTL1 (UniProt P51854)								inactive: -0.053	inactive: 0.049								inactive: 0.131			
THAP7 (UniProt Q9BT49)																inactive: -0.062				

Individual results from above.
TMEM123 (UniProt Q8N131) | log2 fold change [14]: inactive: -0.024
TMEM167B (UniProt Q9NRX6) | log2 fold change [5]: inactive: -0.044
